This is one part of the list. Shown are side measurements of this screen, not its main read-out; they come without a call. Compounds called inactive in the main read-out are mostly missing here. Potencies come from curve fits of mixed quality, noted in brackets.
Experiment: qHTS Assay to Find Inhibitors of Chronic Active B-Cell Receptor Signaling
Details: ABC-DLBCL IkBa-CBG/CBR reporter, luminescence ratio (green luciferase fused to IkBa over red control in TMD8 lymphoma cells), 4 h
Outline: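 Compounds up to 46 uM were incubated four hours with TMD8 cells whose green CBG68 luciferase is fused to IkappaBalpha; red CBR luminescence normalised the signal, and concentration-effect curves were fitted to fusion, red and ratio data.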

[1] = measured here: CBR red luminescence, cell number
[2] = measured here: IkBa-CBG green luminescence

Structure (SMILES) | AC50 [1] | AC50 [2]
O=C(Nc1ccccc1)C1CC(O)CN1S(=O)(=O)c1ccc([N+](=O)[O-])cc1 (centres undefined) | 15.8 µM [rising, partial curve, poor fit] | 
CCN(CC(=O)NCc1cccs1)C(=O)/C=C/c1cccc(OC)c1OC | 1.03 µM [rising, full curve, poor fit] | 
Clc1ccc(SCCCCn2ccnc2)cc1 | 3.66 µM [falling, single point] | 
c1ccc(-c2cc(N3CCCCC3)c3ccccc3n2)cc1 | 7.08 µM [rising, full curve, poor fit] | 
CCCCCNC(=O)c1ccccc1SC | 2.06 µM [falling, partial curve, poor fit] | 
COC(=O)c1c(NC(=O)c2nc3nc(C)cc(C(F)F)n3n2)sc2c1CCC2 | 8.91 µM [falling, partial curve, poor fit] | 
COc1ccc(OC)c(C(=O)COC(=O)c2ccccc2O)c1 | 35.5 µM [rising, single point] | 
Cc1cnc(NC(=O)NCC2CCCC(CNC(=O)Nc3ncc(C)s3)C2)s1 (centres undefined) | 10 µM [falling, partial curve] | 
O=c1oc2ccccc2c(N2CCCCC2)c1CN1CCCC1 | 1.84 µM [falling, full curve] | 
COP(=O)(OC)C(Nc1ccc(C)cc1)c1ccc([N+](=O)[O-])cc1 (centres undefined) | 3.26 µM [falling, partial curve, poor fit] | 
COc1ccc2[nH]c(C)c(CCNC(=S)Nc3cc(C)ccc3C)c2c1 | 0.461 µM [rising, full curve, poor fit] | 
CCOC(=O)C1=C(C)NC(SC)=C(C#N)C1CC(C)C (centres undefined) | 5.62 µM [falling, full curve] | 
O=C(Nc1ncc([N+](=O)[O-])s1)c1ccccc1Br | 10 µM [falling, partial curve, poor fit] | 
CCN1CCCC1CNC(=O)c1cc2c(-c3cccc(OC)c3)nn(C)c2s1 (centres undefined) | 6.51 µM [falling, single point] | 
Cc1ccc(C2CCN(C(=O)Nc3ccc(Cl)c(Cl)c3)C2)cc1 (centres undefined) | 14.1 µM [falling, partial curve] | 
CCNC(=S)N/N=C(\C)c1ccco1 |  | 35.5 µM [falling, single point]
CC(=O)N1CCc2cc(S(=O)(=O)CCC(=O)N3CCC(C)CC3)ccc21 | 12.6 µM [falling, partial curve, poor fit] | 
O=C(O)c1ccccc1CSc1nc2ccccc2o1 | 35.5 µM [falling, single point] | 
O=C(O)Cc1sc(-c2ccc(C(=O)O)cc2)nc1-c1ccccc1 | 14.1 µM [falling, partial curve, poor fit] | 
O=C(CSc1nc2ccccc2c(=O)[nH]1)Nc1ccccc1C(F)(F)F | 7.94 µM [falling, partial curve] | 
CC1CCc2[nH]c3ccc(C(=O)N(C)CC(=O)Nc4ccccc4Br)cc3c2C1 (centres undefined) | 1.64 µM [rising, partial curve] | 4.61 µM [rising, partial curve, poor fit]

Structure (SMILES) | AC50 [1] | AC50 [2]
O=C(Nc1ccc2nc3n(c(=O)c2c1)CCCCC3)c1cc([N+](=O)[O-])ccc1F | 7.94 µM [falling, partial curve] | 6.31 µM [falling, partial curve, poor fit]
CCOc1ccc(S(=O)(=O)/N=C(/Nc2ccc(C(C)=O)cc2)c2ccccc2)cc1 | 5.17 µM [rising, single point] | 
N#Cc1ccccc1OCC(=O)NC1CCCCC1 | 8.2 µM [falling, partial curve, poor fit] | 
COc1cccc(/C=N/Nc2nnc(C)n2N)c1O | 35.5 µM [falling, single point] | 
COc1ccc(NC(=O)CN2C(=O)COc3ccc(C)cc32)cc1 | 35.5 µM [rising, partial curve, poor fit] | 
COC(=O)c1ccccc1NC(=O)CNC(=O)c1ccc(OC)c(OC)c1 | 0.631 µM [falling, full curve] | 
COc1ccc(CCN(C)c2ncnc3sccc23)cc1OC | 6.31 µM [rising, single point] | 
Cc1c(O)nc(SCC(=O)Nc2ccc3c4c(cccc24)CC3)n(-c2ccccc2)c1=O | 18.4 µM [falling, partial curve] | 
CCN(CC)CCNC(=O)c1cc([N+](=O)[O-])c(N(C)C)cc1OC | 14.1 µM [rising, partial curve, poor fit] | 
COc1ccccc1CCC(=O)Nc1nc2ccccc2[nH]1 | 2.31 µM [falling, full curve] | 
O=C(Nc1nc(-c2ccco2)c(-c2ccco2)s1)c1ccco1 | 32.6 µM [falling, single point] | 
O=C(Nc1ccccc1)c1sc(N2CCOCC2)nc1-c1ccccc1 | 2.06 µM [falling, partial curve, poor fit] | 
COc1ccc(/C=N\Nc2ccc([N+](=O)[O-])cc2[N+](=O)[O-])c(C(=O)O)c1OC | 12.6 µM [rising, single point] | 
O=C(Oc1cccc2cccnc12)c1cccs1 | 20.6 µM [rising, single point] | 29.1 µM [falling, single point]
O=C1N2CN(C(c3ccccc3)c3ccccc3)CN=C2SC1(CO)CO | 6.51 µM [falling, partial curve, poor fit] | 
CCOc1cccc2cc(-c3cn4c(n3)sc3ccccc34)c(=O)oc12 | 0.282 µM [falling, full curve, poor fit] | 
CC(C)C[C@H](N)c1nnc(SCC(=O)Nc2ccc(Br)cc2)o1 | 12.6 µM [falling, single point] | 
Cc1csc(NC(=O)c2ccc3c(c2)OCO3)n1 | 15.8 µM [falling, single point] | 
c1ccc(-c2nc3ccccc3nc2-c2ccccn2)nc1 | 29.1 µM [rising, single point] | 
Cc1cccc2nc(CSc3nc4[nH]ncc4c(=O)n3-c3ccccc3Cl)cc(=O)n12 | 3.26 µM [rising, partial curve, poor fit] | 10.3 µM [falling, partial curve]
O=S(=O)(c1ccc2c(c1)OCCO2)N1CCC(c2nc3ccc(Cl)cc3[nH]2)CC1 | 2.91 µM [falling, single point] | 

Structure (SMILES) | AC50 [1] | AC50 [2]
CC(=O)N/C(=C/c1ccc2c(c1)OCO2)C(=O)O | 3.55 µM [falling, partial curve] | 
O=C(CSc1nc2ccccc2o1)N1CCN(C(=O)c2ccco2)CC1 | 29.1 µM [rising, single point] | 
O=[N+]([O-])c1cncc([N+](=O)[O-])c1Nc1cccc(O)c1 | 20 µM [falling, partial curve, poor fit] | 
COC(=O)[C@H](Cc1ccccc1)NC(=O)NCCc1ccc(F)cc1 | 10 µM [rising, partial curve] | 
O=C(CN1CCN(Cc2ccccc2)CC1)Nc1ccc2c(c1)CCC2 | 35.5 µM [rising, single point] | 
Cc1ccn2c(=O)nc(SCC(=O)N3N=C(c4cccs4)CC3c3ccc(F)cc3)nc2c1 (centres undefined) | 23.1 µM [falling, single point] | 
O=C(Cc1ccccc1)Nc1ccc(CN2CCOCC2)cc1 | 7.31 µM [rising, partial curve, poor fit] | 
Cc1cccc(/C(N)=N/OC(=O)CCCc2ccccc2)c1 | 3.55 µM [rising, full curve] | 
CC1(C)Oc2ccc3ccc(=O)oc3c2/C(=C/NNC(N)=O)C1=O | 3.55 µM [rising, partial curve, poor fit] | 
Cc1ccc(C(=O)CSc2nnc(COc3cc(C)cc(C)c3)o2)cc1 | 20.6 µM [rising, single point] | 
O=C(/C=C\c1ccco1)Nc1nc(-c2ccc3ccccc3c2)cs1 | 18.4 µM [falling, single point] | 20.6 µM [rising, partial curve, poor fit]
O=C(CCCSc1nc2ccccc2c(=O)[nH]1)c1ccccc1 | 2.51 µM [rising, full curve] | 
CCCCn1c(N)c(N(CCC(C)C)C(=O)CSc2nnc(Nc3ccccc3)s2)c(=O)[nH]c1=O | 14.1 µM [falling, partial curve, poor fit] | 
COc1cccc(CN(C)CC(O)COC(c2ccccc2)c2ccccc2C)c1 (centres undefined) | 7.94 µM [falling, partial curve] | 
Cn1c(=O)c2c(ncn2CC(=O)OCC(=O)Nc2sccc2C(N)=O)n(C)c1=O | 0.164 µM [rising, full curve, poor fit] | 
O=C(CCN1CCN(c2ccccc2)CC1)N/N=C/c1ccccc1O | 35.5 µM [rising, single point] | 
COc1cc(Nc2c3ccccc3nc3ccccc23)cc(OC)c1OC | 15.8 µM [falling, partial curve] | 
CCN(CC)C(=O)c1sc2c(c1C)c(=O)n(-c1ccccc1)c(=O)n2Cc1cc(=O)n2ccccc2n1 | 0.355 µM [rising, full curve] | 
COc1ccc(C2c3[nH]c4ccccc4c3CCN2Cc2cccn2-c2ncccn2)cc1C (centres undefined) | 17.8 µM [falling, single point] | 
O=C(NCc1ccc2c3c(cccc13)C(=O)N2)c1cccs1 | 14.1 µM [falling, partial curve] | 
COC(=O)c1ccc2nc(Nc3nc4ccc(F)cc4s3)sc2c1 | 0.0326 µM [falling, full curve, poor fit] | 0.58 µM [rising, full curve, poor fit]

Part of the list above, with tabs.
Structure (SMILES)	AC50 [1]	AC50 [2]
CCCCn1c(N)c(N(CCC(C)C)C(=O)CSc2nnc(Nc3ccccc3)s2)c(=O)[nH]c1=O	14.1 µM [falling, partial curve, poor fit]	
COc1cccc(CN(C)CC(O)COC(c2ccccc2)c2ccccc2C)c1 (centres undefined)	7.94 µM [falling, partial curve]	
O=C(CCN1CCN(c2ccccc2)CC1)N/N=C/c1ccccc1O	35.5 µM [rising, single point]	

From PubChem BioAssay AID493014 (National Center for Advancing Translational Sciences (NCATS), 2011)
